These are yes or no findings as the source states them, for the method shown. Binding seen in cells or lysates may run through a third protein. Binding can be weak; no strength is given. Where a sequence is shown, tags or fusion partners need not be part of it.
What was measured:
[1] = molecular target: T1, PUX10–GFP (Arabidopsis thaliana) (UniProt Q9M0N1); test: FRET or BRET; sensitized emission FRET (FRET-SE) between PUX10-GFP and MCA-II-a-tagRFP in root epidermal cells; mock or 50 μM MG132
T1 sequence: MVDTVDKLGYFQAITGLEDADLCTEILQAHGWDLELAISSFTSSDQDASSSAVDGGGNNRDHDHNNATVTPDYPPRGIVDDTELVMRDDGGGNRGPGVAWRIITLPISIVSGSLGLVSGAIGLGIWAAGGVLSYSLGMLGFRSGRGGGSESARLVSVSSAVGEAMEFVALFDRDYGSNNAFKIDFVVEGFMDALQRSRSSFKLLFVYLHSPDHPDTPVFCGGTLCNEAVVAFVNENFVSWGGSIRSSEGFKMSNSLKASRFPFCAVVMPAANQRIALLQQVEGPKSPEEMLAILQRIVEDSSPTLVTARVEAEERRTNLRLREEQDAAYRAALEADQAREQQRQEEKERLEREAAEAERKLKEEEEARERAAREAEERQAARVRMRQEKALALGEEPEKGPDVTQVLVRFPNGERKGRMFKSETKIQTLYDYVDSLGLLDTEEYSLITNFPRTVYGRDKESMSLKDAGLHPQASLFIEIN

[2] = molecular target: T1, PUX10–GFP (Arabidopsis thaliana); test: proximity ligation; in vivo PLA (Duolink) in epidermal cells of the root meristem of stable Arabidopsis lines; α-FLAG or α-RFP with α-CDC48a or α-GFP; < 40 nm distance

## HF-MCA-II-a-tagRFP (Arabidopsis thaliana) (enzyme)
[1]
  binding: binds
[2]
  binding: binds

Source: publication PMC11310522
